Reference: the supplement of paper PMC8256030
Values joined by “and” are separate entries in the source; they are usually repeats but may differ in a detail not shown here. Equal values may be shown once. Where a name gives a salt, the structure may show the parent alone. This is one part of the list. Repeats in this data set agree poorly, so a single value says little.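 HEK293T cells were given each compound shortly before transfection with a reporter in which red mCherry is followed by the SARS-CoV-2 frameshift element and then GFP in the −1 frame, so GFP appears only after frameshifting.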

Legend:
[1] = system: SARS-CoV-2 -1 PRF reporter mCherry-FSE-GFP(-1); test: mCherry (red) intensity as percent of control; higher = higher upstream reporter expression; conditions: 10 µM; 24 h; HEK293T
[2] = system: SARS-CoV-2 -1 PRF reporter mCherry-FSE-GFP(-1); test: percent effect, decrease of GFP/mCherry ratio (-1 PRF reporter) relative to controls; higher = stronger frameshift inhibition; conditions: 10 µM; 24 h; HEK293T

Row | SMILES | mCherry [1] | percent effect [2]
1 | CCCCCCCCCCCCCCCCCC(=O)OC[C@@H](O)[C@H]1OC[C@H](O)[C@H]1O [sorbitan stearate] | 80.4% | 0.182%
2 | CC1/C=C/C=C/C=C/C=C/C=C/C=C/C=C/C(OC2O[C@H](C)[C@@H](O)[C@H](N)[C@@H]2O)CC(O)C(C(=O)O)C(O)CC(=O)CC(O)CC(O)CC(O)CC(=O)CCCC(=O)CC(=O)OC1C(C)CC(C)C(O)CC(=O)c1ccc(N)cc1 (some centres undefined) | 100% | -4.55%
3 | CC1COc2c(N3CCN(C)CC3)c(F)cc3c(=O)c(C(=O)O)cn1c23 (centres undefined) [ofloxacin] | 90.8% and 86.2% | -3.16% and 1.8%
4 | COc1cc2cc(c1Cl)N(C)C(=O)C[C@H](OC(=O)[C@H](C)N(C)C(C)=O)[C@]1(C)O[C@H]1[C@H](C)[C@@H]1C[C@@](O)(NC(=O)O1)[C@H](OC)/C=C/C=C(\C)C2 [maitansine] | 109% | -0.162%
5 | CC1CCN(C(=O)[C@@H](CCn2cccc2C#N)NS(=O)(=O)c2cccc3[nH]ccc23)CC1 | 79.6% | -0.107%
6 | CCN(CC)CCOC(=O)C(Cc1cccc2ccccc12)CC1CCCO1 (mixture of isomers) [naftidrofuryl] | 112% | -2.38%
7 | CCCCCCCCCCCC[N+](C)(C)CC(=O)OCC [laurcetium iodide] | 39.7% | -14.5%
8 | CO[C@@H]1[C@@H](OC)[C@H](C)[C@@](O)(CC(=O)O)O[C@H]1[C@H](C)[C@H]1O[C@@]2(CC[C@@](C)([C@H]3CC[C@@](C)([C@@H]4O[C@@H]([C@H]5O[C@](C)(O)[C@H](C)C[C@@H]5C)C[C@@H]4O[C@@H]4C[C@H](OC)[C@@H](OC)[C@H](C)O4)O3)O2)C[C@H](O)[C@H]1C [maduramicin] | 1440% | -27.5%
9 | Clc1ccc2nsnc2c1NC1=NCCN1 [Tizanidine·HCl] | 78.5% | 14.1%
10 | COC(=O)[C@H]1[C@H]2C[C@@H]3c4[nH]c5cc(OC)ccc5c4CCN3C[C@H]2C[C@@H](OC(=O)c2cc(OC)c(OC)c(OC)c2)[C@@H]1OC [reserpine] | 50.7% | -12.9%
11 | COc1ccc(C(=O)c2ccccc2O)c(O)c1 [dioxybenzone] | 119% | -6.85%
12 | CC(=O)N(C)C1(c2ccccc2)CCN(CCC[C@]2(c3ccc(Cl)c(Cl)c3)CCCN(C(=O)c3ccccc3)C2)CC1 [osanetant] | 32.1% | -9.59%
13 | CCc1c(C)[nH]c2c1C(=O)C(CN1CCOCC1)CC2 (centres undefined) [molindone] | 104% | -11.7%
14 | COc1nc2ccc(Br)cc2cc1[C@@H](c1ccccc1)[C@@](O)(CCN(C)C)c1cccc2ccccc12 [Bedaquiline] | 114% | 0.439%
15 | CC(C)(Oc1ccc(Cl)cc1)C(=O)OCCOC(=O)c1cccnc1 [etofibrate] | 91.6% | -3.29%
16 | CSc1ccc2c(c1)C(N1CCN(C)CC1)Cc1ccccc1S2 (centres undefined) [metitepine] | 110% | -2.25%
17 | FCOC(C(F)(F)F)C(F)(F)F [sevoflurane] | 99.8% | -5.83%
18 | C=CS(=O)(=O)O [apolate] | 93.9% | -12.2%
19 | CC(=O)Oc1cc(C(C)C)c(OCCN(C)C)cc1C [moxisylyte] | 97.5% | 0.0548%
20 | CC(C)CC1Nc2cc(Cl)c(S(N)(=O)=O)cc2S(=O)(=O)N1 (centres undefined) [butizide] | 73.6% | -1.18%
21 | NS(=O)(=O)NCc1ccccc1 [benzylsulfamide] | 119% | -4.12%
22 | CCCCOc1ccc(NC(=S)Nc2ccc(N(C)C)cc2)cc1 [N-(4-butoxyphenyl)-N'-[4-(dimethylamino)phenyl]thiourea] | 100% | -4.15%
23 | NC(=O)C(=O)N/N=C/c1ccc([N+](=O)[O-])o1 [nifuraldezone] | 105% | -9.15%
24 | CNC(=O)[C@@H](NC(=O)[C@H](CC(C)C)[C@H](O)C(=O)NO)C(C)(C)C [Marimastat] | 102% | -2.64%
25 | CSCC[C@H](NC(=O)[C@H](Cc1c[nH]c2ccccc12)NC(=O)CNC(=O)[C@@H](NC(=O)[C@H](Cc1ccc(OS(=O)(=O)O)cc1)NC(=O)[C@H](CC(=O)O)NC(=O)[C@H](CCC(N)=O)NC(=O)[C@@H]1CCC(=O)N1)[C@@H](C)O)C(=O)N[C@@H](CC(=O)O)C(=O)N[C@@H](Cc1ccccc1)C(N)=O [ceruletide] | 80.3% | -2.34%
26 | N=C(N)C(O)c1ccc2c(c1)OCO2 (centres undefined) [olmidine] | 108% | -11.9%
27 | O=C([O-])c1ccccc1O.[Na+] | 114% | -5.77%

Complete entries from above.
CO[C@@H]1[C@@H](OC)[C@H](C)[C@@](O)(CC(=O)O)O[C@H]1[C@H](C)[C@H]1O[C@@]2(CC[C@@](C)([C@H]3CC[C@@](C)([C@@H]4O[C@@H]([C@H]5O[C@](C)(O)[C@H](C)C[C@@H]5C)C[C@@H]4O[C@@H]4C[C@H](OC)[C@@H](OC)[C@H](C)O4)O3)O2)C[C@H](O)[C@H]1C [maduramicin] is entered as mCherry [1]: 1440%; percent effect [2]: -27.5%
C=CS(=O)(=O)O [apolate] is entered as mCherry [1]: 93.9%; percent effect [2]: -12.2%
